Reference: US5053006A, “Method for the permanent occlusion of arteries” (priority 1990, dated 1991)
At least one structure is not confirmed: it was looked up by name or label, or the drawing left a doubt.

Tests used:
[1] = test system: conjunctival epithelium on vascularized corneas; experiment: Epithelial differentiation on photothrombosed corneas (goblet cells, cytology, histology); type: in vivo, New Zealand albino rabbit; conditions: four weeks, impression cytology
Method: In order to study the goblet cell density on the vascularized corneas before and after photothrombosis, corneal flat-mounts were prepared and stained according to usual methods (Tseng et al., Invest. Opthalmol. Vis. Sci., 25:1168-76, 1984). The pattern of goblet cell disappearance was then analyzed and specifically correlated with the treated area.
The epithelial phenotype of the control and treated corneas was then studied by impression cytology (Tseng, Ophthalmology, 92:728-33, 1985) and routine histology using hematoxylin and PAS. In addition, immunofluorescent stainings of the frozen sections using a previously developed anti-rabbit ocular mucin monoclonal antibody [anti-ROM] was performed to study mucin expression.

[2] = test system: arteries; conditions: experimental animals

O=C([O-])c1c(Cl)c(Cl)c(Cl)c(Cl)c1-c1c2cc(I)c(=O)c(I)c-2oc2c(I)c([O-])c(I)cc12.[Na+].[Na+] [rose bengal]
N/C ratio of superficial epithelial cells [1]: 1/3 to 1/2 | effective initial concentration of rose bengal in blood [2]: 130 μM to 680
